In this test the target is FLAG-tagged Aurora-A (UniProt O14965). Kind of test: affinity purification with mass spectrometry; Flag-Aurora A expressed in 293T and DLD1 cells, isolated by IP, eluted with 200 μg/ml flag peptide, nano LC-MS/MS.

By UniProt entry, the sequences of proteins in these tests, tags left out.
UniProt O14965: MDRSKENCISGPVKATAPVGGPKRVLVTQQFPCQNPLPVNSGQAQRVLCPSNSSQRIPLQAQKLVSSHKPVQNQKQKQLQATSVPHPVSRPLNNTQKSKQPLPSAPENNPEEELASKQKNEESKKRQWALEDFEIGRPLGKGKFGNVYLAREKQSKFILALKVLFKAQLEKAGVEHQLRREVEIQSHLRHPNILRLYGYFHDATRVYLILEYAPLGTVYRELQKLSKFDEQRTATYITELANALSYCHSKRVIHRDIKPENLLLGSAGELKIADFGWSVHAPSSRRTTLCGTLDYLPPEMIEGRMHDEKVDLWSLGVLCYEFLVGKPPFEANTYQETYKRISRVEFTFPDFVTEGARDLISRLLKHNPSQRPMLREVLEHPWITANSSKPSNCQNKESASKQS
UniProt P14618: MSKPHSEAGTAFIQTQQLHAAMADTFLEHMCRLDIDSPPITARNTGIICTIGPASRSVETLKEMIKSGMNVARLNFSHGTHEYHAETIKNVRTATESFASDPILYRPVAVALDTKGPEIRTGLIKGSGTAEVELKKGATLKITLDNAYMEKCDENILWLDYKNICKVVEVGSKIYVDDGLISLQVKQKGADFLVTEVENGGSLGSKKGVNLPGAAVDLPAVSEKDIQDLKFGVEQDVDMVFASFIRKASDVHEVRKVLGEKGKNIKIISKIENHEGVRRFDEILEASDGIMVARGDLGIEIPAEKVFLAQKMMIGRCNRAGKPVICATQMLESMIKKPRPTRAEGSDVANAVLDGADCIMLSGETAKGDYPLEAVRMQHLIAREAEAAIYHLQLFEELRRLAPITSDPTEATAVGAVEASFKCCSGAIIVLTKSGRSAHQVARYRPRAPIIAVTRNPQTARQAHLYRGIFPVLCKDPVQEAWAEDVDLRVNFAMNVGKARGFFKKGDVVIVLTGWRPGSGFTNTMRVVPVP
UniProt P06733: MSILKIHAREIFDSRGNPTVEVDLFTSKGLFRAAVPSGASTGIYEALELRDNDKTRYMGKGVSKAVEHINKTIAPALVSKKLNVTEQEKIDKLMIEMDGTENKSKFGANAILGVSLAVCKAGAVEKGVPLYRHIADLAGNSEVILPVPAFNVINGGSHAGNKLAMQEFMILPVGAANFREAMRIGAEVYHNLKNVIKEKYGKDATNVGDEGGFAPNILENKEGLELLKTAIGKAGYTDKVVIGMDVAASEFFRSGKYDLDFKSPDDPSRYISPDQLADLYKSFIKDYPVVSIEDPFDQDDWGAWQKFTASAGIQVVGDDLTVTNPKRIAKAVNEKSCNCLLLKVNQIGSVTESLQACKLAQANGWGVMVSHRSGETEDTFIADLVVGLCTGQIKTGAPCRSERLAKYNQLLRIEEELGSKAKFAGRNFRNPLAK
UniProt P18669: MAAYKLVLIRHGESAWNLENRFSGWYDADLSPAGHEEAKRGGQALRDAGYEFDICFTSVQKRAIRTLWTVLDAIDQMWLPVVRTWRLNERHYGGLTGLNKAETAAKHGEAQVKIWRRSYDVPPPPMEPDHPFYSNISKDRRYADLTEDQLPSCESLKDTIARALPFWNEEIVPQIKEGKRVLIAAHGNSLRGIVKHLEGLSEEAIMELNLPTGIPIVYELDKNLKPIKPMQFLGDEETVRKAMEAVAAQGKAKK

Experimental findings from PMC6895051 are described below.

Results are given in words; binding and its absence hold for the method and conditions named. Binding seen in cells or lysates may run through a third protein. These calls come from enrichment with a bait or labelling near it, and not all partners need be listed.

For “PKM (endogenous) (from UniProt P14618 1-531) (enzyme)”, the binding result is given as “binds”.
On to “ENOA (endogenous) (from UniProt P06733 1-434) (enzyme)”, for which the binding entry is reported as “binds”.
Take “PGAM1 (endogenous) (from UniProt P18669 1-254) (enzyme)”: the binding entry is on record as “binds”.
